# Results reported in patent US12193465B2, “Materials and methods for extending shelf-life of foods” (JP Laboratories, Inc., priority 2021, dated 2025).
# For some assays here: At least one read-out could not be matched to a standard name with certainty. Some of these results come from one statement about several compounds together.
# What was measured:
# fungus = experiment: Fungus growth on treated foods stored in closed containers at room temperature
# From the text: Most of the foods changed color or texture.
# Glass jars and bottles were also used. The containers were snap-closed or with a lid.
# These bags were sealed with a heat sealer.
# The assembly was shaken periodically.
# black fungus = experiment: Fungus growth in edible wax coating formulation; conditions: 0.2 g in about 50 g edible candelilla wax suspension; control ten days
structure (smiles),measurement,setting,value
"O=C1C=CCCC1 [2CY, 2-Cyclohexen-1-one]",Spoilage Time - Sample,"fungus; Example 109, Raw milk mozzarella cheese, 1 hr P-E, control 6 days",24 days
same,Spoilage Time - Sample,"fungus; Example 109, Raw milk mozzarella cheese, 1 hr P-E, control 6 days, listed as 2-cyclohexen-1-one",> 24 days
same,Spoilage Time - Sample,"fungus; Example 110, Sprouted Mung, 0.02 g in 10 ml water, control 7 days",12 days
"O=C1CCCCC1 [CY, Cyclohexanone]",Spoilage Time - Sample,"fungus; Example 94, Blueberry, Sachet, control 3 days",73 days
same,Spoilage Time - Sample,"fungus; Example 94, Blueberry, Sachet, control 3 days, listed as cyclohexanone",> 73 days
same,Spoilage Time - Sample,"fungus; Example 97, Horseradish, 1 hr P-E, control 6 days",19 days
same,Spoilage Time - Sample,"fungus; Example 97, Horseradish, 1 hr P-E, control 6 days, listed as cyclohexanone",> 19 days
same,Spoilage Time - Sample,"fungus; Example 100, Puri, 16 hrs P-E, control 5 days, listed as cyclohexanone",> 70 days
same,Spoilage Time - Sample,"fungus; Example 103, Coconuts, Sachet, 100% relative humidity, control 11 days",25 days
same,Spoilage Time - Sample,"fungus; Example 103, Coconuts, Sachet, 100% relative humidity, control 11 days, listed as cyclohexanone",> 25 days
same,Spoilage Time - Sample,"fungus; Example 104, Cucumbers, 1 hr P-E, control 4 days",21 days
same,Spoilage Time - Sample,"fungus; Example 104, Cucumbers, 1 hr P-E, control 4 days, listed as cyclohexanone",> 21 days
same,Spoilage Time - Sample,"fungus; Example 105, Boiled fresh peanuts, Sachet, control 7 days",16 days
same,Spoilage Time - Sample,"fungus; Example 105, Boiled fresh peanuts, Sachet, control 7 days, listed as cyclohexanone",> 16 days
"CC1=CCCC1 [MCP, 1-Methylcyclopentene]",Spoilage Time - Sample,"fungus; Example 116, Cucumbers, 1 hr P-E, control 4 days",21 days
same,Spoilage Time - Sample,"fungus; Example 116, Cucumbers, 1 hr P-E, control 4 days, listed as 1-methylcyclopentene",> 21 days
"CC(=O)CC(C)=O [AA, Acetylacetone]",Spoilage Time - Sample,"fungus; Example 121, Horseradish, 1 hr P-E, control 6 days",19 days
same,Spoilage Time - Sample,"fungus; Example 121, Horseradish, 1 hr P-E, control 6 days, listed as acetylacetone",> 19 days
same,Spoilage Time - Sample,"fungus; Example 125, White pearl onions, Sachet, control 8 days",48 days
same,Spoilage Time - Sample,"fungus; Example 125, White pearl onions, Sachet, control 8 days, listed as acetylacetone",> 48 days
same,Fungus growth,black fungus,> 35 days
"CC1CCCCC1=O (centres unmarked) [2MC, 2-Methylcyclohexanone]",Spoilage Time - Sample,"fungus; Example 117, Blueberry, Sachet, control 5 days",67 days
same,Spoilage Time - Sample,"fungus; Example 117, Blueberry, Sachet, control 5 days, listed as 2-methylcyclohexanone",> 67 days
